Experimental data: PubChem BioAssay AID720504 (National Center for Advancing Translational Sciences (NCATS), 2013)
Among all 360,000 compounds or so, about 10,000 (2.8%) were called active. The shares of active, inactive and inconclusive entries below differ from those in the screen. The call rests on the fitted dose curve; in most records, active means well fitted inhibition curve with a large enough effect; inconclusive means small, poorly fitted or top-dose-only effect; inactive means flat fitted curve, though single readings scatter. A potency beside an inconclusive call is a rough fit, not a confirmed value.

By UniProt entry, the sequences of proteins in these tests, tags left out.
UniProt P53350, whole entry, looked up: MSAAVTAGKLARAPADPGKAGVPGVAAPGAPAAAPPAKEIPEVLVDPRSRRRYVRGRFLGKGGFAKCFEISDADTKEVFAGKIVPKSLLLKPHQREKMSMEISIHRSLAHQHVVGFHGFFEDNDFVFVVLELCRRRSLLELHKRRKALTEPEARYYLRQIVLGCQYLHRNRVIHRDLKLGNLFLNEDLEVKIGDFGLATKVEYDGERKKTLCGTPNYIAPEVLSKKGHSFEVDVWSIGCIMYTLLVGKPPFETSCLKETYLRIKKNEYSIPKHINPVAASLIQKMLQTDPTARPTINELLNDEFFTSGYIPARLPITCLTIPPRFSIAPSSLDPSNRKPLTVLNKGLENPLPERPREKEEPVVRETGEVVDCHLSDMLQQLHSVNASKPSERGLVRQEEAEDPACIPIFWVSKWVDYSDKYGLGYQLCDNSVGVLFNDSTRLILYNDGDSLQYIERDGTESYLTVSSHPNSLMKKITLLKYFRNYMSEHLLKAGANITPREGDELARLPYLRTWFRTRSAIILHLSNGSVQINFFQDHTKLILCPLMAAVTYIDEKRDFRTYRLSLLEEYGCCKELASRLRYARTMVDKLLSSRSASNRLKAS

Target: Serine/threonine-protein kinase PLK1 (Homo sapiens) (UniProt P53350)
Experiment: qHTS for Inhibitors of PLK1-PDB (polo-like kinase 1 - polo-box domain): Primary Screen; further: nearly all actives have a fitted effect of over 65% in size; on max response, negative = inhibition: series mostly up to about 57 µM
Conditions: Plk1 PBD binding of FITC phosphopeptide, fluorescence polarization
On the % scale 0 is the no-effect control and ±100 the full control effect; potency means the concentration at half of the fitted maximal effect.

Compound | max response, negative = inhibition | Potency
Cc1ccc(-n2c(C)cc(/C=C3\SC(=O)NC3=O)c2C)cc1 | inactive: 0.339% | 
CN(/N=C/c1cccnc1)c1cnn(-c2ccc(F)c(Cl)c2)c(=O)c1Cl | inactive: -0.414% | 
COc1ccc(N2C(=O)CCC(C(=O)N3CCCCC3)C2c2ccc(OC)c(OC)c2)cc1 (centres undefined) | inactive: -0.295% | 
Cc1ccc2c(c1)C(=O)C(=O)N2Cc1ccc(Br)cc1 |  | inconclusive: 26.7 µM [inhibitor, single point]
COC(=O)c1c(NC(=O)CCC(=O)O)sc(Cc2ccccc2)c1C |  | inconclusive: 26.7 µM [inhibitor, single point]
CN(C)C(=O)c1cc(C(=O)c2ccccc2C(F)(F)F)c[nH]1 |  | active: 26.7 µM
S=c1nc(-c2cccc(Br)c2)[nH][nH]1 |  | inconclusive: 13.4 µM [inhibitor, partial curve]
O=C(O)c1ccc(CSCc2ccccc2Cl)o1 |  | active: 21.2 µM
COc1ccc(CNC(=O)C/C(C)=N/NC(=O)COc2ccc(C)cc2Br)cc1 |  | inconclusive: 23.8 µM [inhibitor, single point]
Fc1ccc(-n2[nH]nnc2=S)cc1N1CCCC1 |  | inconclusive: 37.7 µM [inhibitor, single point]
Cn1c(=O)c(C(=O)Nc2ncccn2)c(O)c2ccccc21 |  | active: 8.44 µM
CC(=O)c1c(C)nn(CCC(=O)O)c1C |  | active: 15 µM
Cc1ccc(Cc2c(-c3ccco3)nc3ccc(Cl)cn23)cc1 |  | active: 21.2 µM
Nc1c(C(=O)O)cnc2c(-c3ccc(Cl)cc3)cnn12 |  | inconclusive: 23.8 µM [inhibitor, single point]
O=C(NC(=S)Nc1ccccc1Br)c1ccc2c(c1)OCO2 | inactive: -5.99% | 
O=C1C=CC(=O)c2c(O)c(N3CCN(CCO)CC3)c(Cl)c(O)c21 |  | active: 11.9 µM
COc1cccc(C(c2sc3ncnn3c2O)N2CCc3ccccc3C2)c1 (centres undefined) |  | inconclusive: 26.7 µM [inhibitor, partial curve]
COc1cccc(C2/C(=C(/O)c3ccc4c(c3)CC(C)O4)C(=O)C(=O)N2c2nnc(C)s2)c1 (centres undefined) |  | inconclusive: 26.7 µM [inhibitor, single point]
Cc1ccc2nc(/C(C#N)=C/c3ccc(O)c(O)c3)[nH]c2c1 |  | inconclusive: 5.32 µM [inhibitor, partial curve]
Cc1ccc(/C=N/n2cnc3sc(C)c(C)c3c2=O)o1 |  | active: 21.2 µM
COc1ccc(CN2CC(=O)N3[C@H]4c5ccccc5OC[C@@H]4[C@H](c4ccccc4)[C@]3(C)C2=O)cc1 | inactive: 4.73% | 
Cc1ccc2cc(CN(Cc3nnnn3C3CCCCC3)CC3CCCO3)c(=O)[nH]c2c1 (centres undefined) | inactive: -9.54% | 
CC(C)(C)Nc1nc(-c2ccc3c(c2)CCN3C(=O)C2CC2)cs1 |  | inconclusive: 26.7 µM [inhibitor, partial curve]
COc1ccc(S(=O)(=O)Oc2ccccc2C(N)=O)cc1 | inactive: -2.56% | 
COCCN=C1Sc2nc3c(C)cccc3cc2CN1Cc1ccco1 |  | inconclusive: 26.7 µM [inhibitor, partial curve]

Compound | max response, negative = inhibition | Potency
CCC(C)NC(=S)N1CCN(Cc2ccc3c(c2)OCO3)CC1 (centres undefined) |  | inconclusive: 29.9 µM [inhibitor, partial curve]
Cc1cccc(S(=O)(=O)NC(Cc2c[nH]c3ccccc23)C(=O)O)c1 (centres undefined) | inactive: 1.11% | 
COC(=O)c1ccc(COc2ccc(/C=C/C(=O)c3ccc(OC)c(CSCC(=O)O)c3)cc2OC)cc1 |  | inconclusive: 37.7 µM [inhibitor, single point]
Cc1nc2ccccc2n1CC(=O)N/N=C\c1ccccn1 | inactive: -11.2% | 
CC(=O)N1CCN(C(=S)c2ccc([N+](=O)[O-])cc2)CC1 |  | inconclusive: 26.7 µM [inhibitor, partial curve]
Cc1nnc(SCC(=O)N/N=C/c2ccc(-c3ccc(C)c(Cl)c3)o2)s1 | inactive: -8.31% | 
N#CC(C#N)=C1C=CC=CN1/C(=C\c1ccco1)C(=O)c1ccccc1 |  | active: 11.9 µM
C=CC[n+]1ccc2ccccc2c1C |  | inconclusive: 26.7 µM [inhibitor, single point]
Cc1ccsc1/C=N/n1c(COc2ccccc2)n[nH]c1=S |  | inconclusive: 23.8 µM [inhibitor, single point]
O=C(NCSc1ccccc1)c1ccccc1 |  | active: 23.8 µM
CCOc1cc(N2CCOCC2)c(OCC)cc1NC(=O)c1c(-c2ccccc2Cl)noc1C | inactive: 11.7% | 
COc1cccc(O)c1CN1CCC(Oc2ccc(C(=O)NCc3ccccn3)cc2)CC1 |  | inconclusive: 29.9 µM [inhibitor, partial curve]
Cc1[nH][nH]c(=O)c1C(c1cc([N+](=O)[O-])ccc1O)c1c(C)[nH][nH]c1=O |  | inconclusive: 26.7 µM [inhibitor, partial curve]
Cc1cccc2cc(-c3ccccc3)c(-c3ccccc3)c[n+]12 |  | inconclusive: 29.9 µM [inhibitor, partial curve]
CCCn1c(NC(=O)C2CCN(C(=O)c3ccccc3C)CC2)nc2ccccc21 | inactive: 1.58% | 
Cc1ccc2c(Cl)cc(Cl)c(OCC(=O)N3CCCC3)c2n1 |  | active: 26.7 µM
Cc1cccc(-n2nc(C)c3c(C(=O)O)cc(-c4cccs4)nc32)c1 |  | inconclusive: 33.6 µM [inhibitor, single point]
COc1cccc(NC(=O)CSc2nc(O)c(C)c(=O)n2-c2ccc(C)cc2)c1 |  | inconclusive: 37.7 µM [inhibitor, single point]
Cc1ccccc1OCc1nnc(SCC(=O)Nc2ccc3c(c2)oc2ccccc23)n1C | inactive: -12.2% | 
Cc1sc(NC(=O)c2cccs2)c(C(N)=O)c1C |  | active: 21.2 µM
COc1ccccc1CC(=O)NCCc1ccc(S(N)(=O)=O)cc1 |  | inconclusive: 18.9 µM [inhibitor, partial curve, poor fit]
COc1ccccc1Nc1nc(N)nc(CN2CCOCC2)n1 | inactive: -1.15% | 
Cc1ccc(S(=O)(=O)N2CCCN(Cc3nc4ccccc4c(=O)[nH]3)CC2)cc1 | inactive: -4.87% | 
COc1ccccc1Cn1c(SCC(N)=O)nc2c(oc3ccccc32)c1=O |  | inconclusive: 33.6 µM [inhibitor, single point]
COc1ccc2cc(C(=O)C3CCCN(C(=O)c4cc(=O)n(C)c(=O)n4C)C3)ccc2c1 (centres undefined) |  | inconclusive: 13.4 µM [inhibitor, partial curve]

6 entries already listed, arranged by heavy-atom count, ascending.
Compound | max response, negative = inhibition | Potency
Cc1sc(NC(=O)c2cccs2)c(C(N)=O)c1C |  | active: 21.2 µM
Cc1ccc2c(Cl)cc(Cl)c(OCC(=O)N3CCCC3)c2n1 |  | active: 26.7 µM
COc1ccccc1CC(=O)NCCc1ccc(S(N)(=O)=O)cc1 |  | inconclusive: 18.9 µM [inhibitor, partial curve, poor fit]
Cc1nnc(SCC(=O)N/N=C/c2ccc(-c3ccc(C)c(Cl)c3)o2)s1 | inactive: -8.31% | 
CCCn1c(NC(=O)C2CCN(C(=O)c3ccccc3C)CC2)nc2ccccc21 | inactive: 1.58% | 
Cc1ccccc1OCc1nnc(SCC(=O)Nc2ccc3c(c2)oc2ccccc23)n1C | inactive: -12.2% | 

(next part)

Compound | max response, negative = inhibition | Potency
Cn1nnc2sc3c(c2c1=O)CCCC3 |  | inconclusive: 18.9 µM [inhibitor, partial curve]
Oc1ccccc1NCC(O)Cn1ccc2ccccc21 (centres undefined) |  | inconclusive: 37.7 µM [inhibitor, single point]
C=C1c2ccccc2NC(=S)N1Cc1ccc2c(c1)OCO2 |  | inconclusive: 26.7 µM [inhibitor, partial curve]
O=C1C(=Cc2ccccc2O)SC(=S)N1CCCN1CCOCC1 |  | active: 2.67 µM
CCc1cc2c(=O)c(-c3ccc4c(c3)OCO4)coc2c(CN(C)C)c1O | inactive: -12.4% | 
CO/N=C/C(=N\Nc1ccccc1)C(=O)c1ccccc1 |  | active: 23.8 µM
CCC(C)NCc1ccc(C(=O)OC)o1 (centres undefined) |  | active: 23.8 µM
COc1ccc(Cl)cc1NC(=O)CCS(=O)(=O)c1ccc(Br)cc1 |  | active: 15 µM
CCCCc1nnc(NC(=O)CSc2nc(O)c(Cc3ccccc3)c(=O)[nH]2)s1 |  | active: 26.7 µM
CCN(c1ccc(C)cc1)S(=O)(=O)c1nnc(NC(=O)c2ccco2)s1 |  | inconclusive: 18.9 µM [inhibitor, single point]
CC(=O)Nc1ccc(OC(=O)c2cccs2)cc1 | inactive: -18.5% | 
CCC(c1nnnn1C(C)(C)C)N1CCN(Cc2ccccc2OC)CC1 (centres undefined) | inactive: -14.1% | 
CC1=C(CC(=O)O)c2cc(F)ccc2/C1=C\c1ccc(S(C)=O)cc1 (centres undefined) |  | inconclusive: 29.9 µM [inhibitor, partial curve]
CC(C)N1C(=O)S/C(=C\c2ccc(-c3ccc(Cl)c(C(=O)O)c3)o2)C1=O |  | inconclusive: 26.7 µM [inhibitor, partial curve]
COc1ccc(/C=C/C(=O)NCCN2CCOCC2)cc1OC |  | active: 16.8 µM
CC(=O)CC1(O)C(=O)N(Cc2ccccc2)c2ccccc21 (centres undefined) |  | active: 26.7 µM
COc1cc(SC#N)ccc1N=Cc1c(C)[nH]n(-c2cccc3ccccc23)c1=O |  | inconclusive: 6.7 µM [inhibitor, partial curve]
COC(=O)[C@H]1C[C@H](OC(=O)NCc2ccco2)[C@@]2(O)CN(S(=O)(=O)c3ccc(C)cc3)CC2[C@H]1C(=O)OC (some centres undefined) |  | inconclusive: 33.6 µM [inhibitor, partial curve]
O=C(Nc1cc2c(oc1=O)CCCC2=O)c1ccc(Cl)cc1 |  | inconclusive: 21.2 µM [inhibitor, partial curve]
CCN1C/C(=C\c2cccc([N+](=O)[O-])c2)C(=O)/C(=C/c2cccc([N+](=O)[O-])c2)C1 | inconclusive: -30.6% [inhibitor] | 
CCN(CC)CCOC(=O)/C=C/c1ccccc1 | inactive: -8.51% | 
NC(=S)NN=Cc1ccc(OC(=O)COc2cc(Cl)c(Cl)cc2Cl)cn1 |  | inconclusive: 10.6 µM [inhibitor, partial curve]
O=S(=O)(c1ccccc1)c1nc(Nc2cccc(O)c2)sc1Cl |  | inconclusive: 26.7 µM [inhibitor, partial curve]
O=C(O)/C(=C\c1cccc(OCc2ccccc2)c1)c1ccc(F)cc1 |  | inconclusive: 33.6 µM [inhibitor, single point]
